These are yes or no findings as the source states them, for the method shown. Some entries that bind do so weakly or less than the wild type.

This note sets out measurements from patent US20180346555A1.

Experiment [1] has as its target T1, natural Bet v 1 (Betula verrucosa (Betula pendula)) (UniProt P15494).
T1 sequence: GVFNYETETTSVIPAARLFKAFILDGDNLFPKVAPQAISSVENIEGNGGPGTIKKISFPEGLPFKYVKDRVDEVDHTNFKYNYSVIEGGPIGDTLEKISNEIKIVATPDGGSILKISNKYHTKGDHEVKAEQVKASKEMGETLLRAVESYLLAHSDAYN
As to the kind of experiment: SPR, 25C and 37C. (In general: In SPR one partner is held on a chip, and binding of the other changes the refractive index at the surface.)

The target in experiment [2] is mutant Bet v 1-MMH (Betula verrucosa (Betula pendula)). As to the kind of experiment: SPR, 25C and 37C; members by Tables 4 and 5.
The target of a further experiment is Alder (Aln g 1) (Alder) (UniProt P38948). Description: SPR, 25C; members by Table 6.
Experiment [3] concerns the target T2, Celery (Api g 1) (Celery) (UniProt P49372).
T2 sequence (looked up): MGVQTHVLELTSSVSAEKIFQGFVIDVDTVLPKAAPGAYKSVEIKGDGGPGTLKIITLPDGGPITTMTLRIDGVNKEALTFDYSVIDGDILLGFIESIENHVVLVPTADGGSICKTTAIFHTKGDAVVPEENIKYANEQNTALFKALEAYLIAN
As to the kind of experiment: SPR, 25C; member by Table 8.

B1: H4H16960P (antibody, human IgG4, V domains shown)
VH: QLQLQESGPGLVRPSETLSLTCTVSGGSISSSNYWWGWIRQPPGKGLEWIGSIYYSGITYYNPSLKSRVTISADTSKDQFSLKLRSVTAADTAVYYCAKLEWLRLDFWGQGTTVTVSS
VL: DIQMTQSPSSVSASVGDRVTITCRASQGISSWLVWYQQKPGKVPKLLIYAASSLQSGVPLRFSGSGSGTDFTLTISSLQPEDFATYYCQQAKSFPLTFGQGTRLEIK
Take B1: in experiment [1], the binding entry is on record as “binds”.

B2: H4H16946P (antibody, human IgG4, V domains shown)
VH: EVQLVESGGGLVQPGGSLRLSCVASGFTFSNYDMNWVRQAPGEGLEWISYISYSDHNIYYIDSVKGRFTISRDNAKNSLYLQMNSLRAEDTAIYYCAREALASSSFDYWGQGTLVTVSS
VL: EIVMTQSPATLSVSPGERVTLSCRASQSVSGNLAWYQQKPGQAPRLLIYSASTGATGVPARFSGSGSGTEFTLTISSLQSEDFALYYCQQYNKWPRTIGQGTKVEIK
With B2, the binding result in experiment [1] and in experiment [2] was “binds” throughout.

B3: H4H16950P (antibody, human IgG4, V domains shown)
VH: QVQLVQSGAEVKKPGASVKVSCKTSGYTFTNYGITWVRQAPGQGLEWMGWISAYNGNTNYAQNVQGRVTMTTDTSTSTAYMEVRSLRSDDTAVYYCARRSSMLHFQHWGQGTLVTVSS
VL: DIVMTQSPDSLAVSLGERATINCKSSQHVLYDSSNENYLAWFQQKPGQPPKLLIYWASTRESGVPDRFSGSGSGTDFTLTISSLQAEDVAVYYCQQYSSAPYTFGQGTKLEIK
Turning to B3, the binding entry (in experiment [1]; with Alder (Aln g 1) (Alder)) was “binds” in each case.

B4: H4H17028P (antibody, human IgG4, V domains shown)
VH: QVQLVESGGGVVQPGRSLRLSCAASGFTFSRYAIHWVRQAPGKGLEWVAVISYDGDDKYYGDSVKGRFTISRDNSKTMVYLHMNSLRTEDTAVYYCAKDGYSLYGKDYFDYWGQGTLVTVSS
VL: EIVLTQSPGTLPLSPGERATLSCRASQSITNSYLAWYQQKPDQAPRLLIYGASSRATGIPDRFSGSESGTDFTLTISRLEPEDFAVYYCQQYVRSPWTFGQGTKVEIK
Take B4: the binding result in experiment [1] is reported as “binds”.

B5: H4H16987P (antibody, human IgG4 S228P, kappa, V domains shown)
VH: EVQLVESGGGLVQPGGSLRLSCAASGFTVSSNSMSWVRQAPGEGLEWVSVIFSGGITYYSDSVKGRFTISRHNSKNTLYLQMNSLRTEDTAVYYCARHSNWNFDAFDIWGQGTMVTVSS
VL: DIQMTQSPSSLSASVGDRVTITCRASQSFDTYLNWYQQKPGKAPNLLIYATSSLQSGVPSRFSGSGSGTDFTLTISSLQPEDFGTYYCQQSYSIPYTFGQGTKLEIKR
With B5, the binding entry in experiment [1] and in experiment [2] was “binds” throughout.

B6: H4H17015P (antibody, human IgG4, V domains shown)
VH: QVQLQESGPGLVKPSQTLSLTCTVSGGSISSADHYWSWIRQQPGKGLEWIGYISYRGTTYYNPTLESRVSISVDTFKNQFSLMLHSVTVADTAVYYCAKVLQGLVRFRDYGFDVWGQGTTVTVSS
VL: DIQLTQSPPFLSASVGDRVTITCWASQDISSYLAWYQQNPGKSPKLLIYDAFTLHTGVPSRFSGSGSGTEFTLTISSLQPEDFATFYCQHLYSFPFTFGPGTKVDIK
B6: the binding entry in experiment [1] is reported as “binds”.

B7: H4H16991P (antibody, human IgG4, V domains shown)
VH: QVQLVQSGAEVRKPGASVKVSCKASGYTFTGYYLHWVRQAPGQGLEWMGLINPNTGGTNFAQKFQGRVTMTRDSSISAAYMELSRLRSDDTAVYYCARQHWNRYFDNWGQGTLVTVSS
VL: DIQMTQSPSTLSASVGDRVTITCRASQSVGNWLAWYQQKPGKAPKLLIQEASSIESGVPSRFSGSGSGTEFTLIVSSLQPDDFATYYCQQYNSYSWTFGHGTKVEIK
On to B7, for which, in experiment [1], the binding entry is given as “binds”.

B8: H4H17001P (antibody, human IgG4, V domains shown)
VH: QVQLVESGGGLVKPGGSLRLSCAASGFTFSDYYMNWIRQAPGKGLEWISLISSSGSAIYYSDSVKGRFTISRDNARKSLYLQVNSLRAEDTAVYYCARDRGEWALGAYYYGLDVWGQGTTVTVSS
VL: DIVMTQSPLSLPVTPGEPASISCRSSQSLLHSDGYNYLDWYLQKSGQSPQLLIYLGSNRASGVPDRFSGSGSGTDFTLKISRMEAEDVGVYYCMQALQTPYTFGQGTKLEIK
As for B8, in experiment [1], the binding entry was “binds”.

B9: H4H17031P (antibody, human IgG4, V domains shown)
VH: QVQLQQWGAGLLKPSETLSLTCVVYGESFGNYHWNWIRQSPGKRLEWIGEINQNGHTNYNPSLKSRVTISVDTSKIQFSLRLNSVTAADTAVYFCARGHNYVNSYFGLDVWGQGTTVTVSS
VL: EIVMTQSPATLSVSPGERATLSCRTSQSVSISLAWYQRKPGQAPRLLIFGSSTRATGVPARFSGSGSGTEFTLTISSLQSEDFAVYYCQQYNNWPYTFGQGTKLEIK
As to B9, the binding result in experiment [1] is listed as “binds”.

B10: H4H17033P (antibody, human IgG4, V domains shown)
VH: QVQLVQSGAEVKKPGASVKVSCKASGYTFAAHYMHWVRQAPGQGLEWMGWINTYTGGTNYGQKFQGRVTMTRDTSITTAYMELSRLRSDDTAVYYCARDRRNWNFVFEYWGQGTLVTVSS
VL: DIQMTQSPSSLSASVGDRVTISCRASQNIKNYLNWYQQKPGKAPKLLIYEASNLQSGAPSRFSGSGSGTDFTLTISSLEPEDFATYYCQQSFSIPWTFGQGTKVEIK
On to B10, for which the binding entry in experiment [1] and in experiment [3] was “binds” in each case.

B11: H4H17027P (antibody, human IgG4, V domains shown)
VH: EVQLVESGGGLVQPGGSLRLSCAASGFTFRNYAMHWVRQAPGEGLEWVAAIYRNSDSIDYADSVKGRFTISRDNAKNSLYLQMNSLKTEDTALYYCAKDEGFLEYFDSWGQGTLVTVSS
VL: EIVLTQSPGTLSLSPGERASLSCRASQSVSSSFLAWYQQKPGQAPRLLIYGVSSRFIGIPDRFSGGGSGTDFTLTITRLEPEDFAVYYCQQYGRSPWTFGQGTKVEIK
B11: the binding entry in experiment [1] is given as “binds”.
